Measured values reported in the supplement of paper PMC10849652.
The list shows a part of the results.

Chains of the proteins cited; added tags and fusions are not shown. Lines headed by an entry give the natural chain unless they say otherwise; changes in a name come on top.
UniProt Q8N5F7: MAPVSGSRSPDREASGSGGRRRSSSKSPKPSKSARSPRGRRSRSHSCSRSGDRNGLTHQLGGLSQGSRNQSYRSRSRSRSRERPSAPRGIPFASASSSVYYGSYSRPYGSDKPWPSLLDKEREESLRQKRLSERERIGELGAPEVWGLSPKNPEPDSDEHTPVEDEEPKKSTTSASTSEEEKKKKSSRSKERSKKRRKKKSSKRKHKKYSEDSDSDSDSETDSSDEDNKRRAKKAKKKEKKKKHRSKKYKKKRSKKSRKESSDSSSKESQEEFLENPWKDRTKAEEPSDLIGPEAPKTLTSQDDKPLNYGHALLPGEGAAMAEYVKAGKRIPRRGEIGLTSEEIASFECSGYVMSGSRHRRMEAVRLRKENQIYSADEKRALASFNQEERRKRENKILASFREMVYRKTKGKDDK
UniProt O76041: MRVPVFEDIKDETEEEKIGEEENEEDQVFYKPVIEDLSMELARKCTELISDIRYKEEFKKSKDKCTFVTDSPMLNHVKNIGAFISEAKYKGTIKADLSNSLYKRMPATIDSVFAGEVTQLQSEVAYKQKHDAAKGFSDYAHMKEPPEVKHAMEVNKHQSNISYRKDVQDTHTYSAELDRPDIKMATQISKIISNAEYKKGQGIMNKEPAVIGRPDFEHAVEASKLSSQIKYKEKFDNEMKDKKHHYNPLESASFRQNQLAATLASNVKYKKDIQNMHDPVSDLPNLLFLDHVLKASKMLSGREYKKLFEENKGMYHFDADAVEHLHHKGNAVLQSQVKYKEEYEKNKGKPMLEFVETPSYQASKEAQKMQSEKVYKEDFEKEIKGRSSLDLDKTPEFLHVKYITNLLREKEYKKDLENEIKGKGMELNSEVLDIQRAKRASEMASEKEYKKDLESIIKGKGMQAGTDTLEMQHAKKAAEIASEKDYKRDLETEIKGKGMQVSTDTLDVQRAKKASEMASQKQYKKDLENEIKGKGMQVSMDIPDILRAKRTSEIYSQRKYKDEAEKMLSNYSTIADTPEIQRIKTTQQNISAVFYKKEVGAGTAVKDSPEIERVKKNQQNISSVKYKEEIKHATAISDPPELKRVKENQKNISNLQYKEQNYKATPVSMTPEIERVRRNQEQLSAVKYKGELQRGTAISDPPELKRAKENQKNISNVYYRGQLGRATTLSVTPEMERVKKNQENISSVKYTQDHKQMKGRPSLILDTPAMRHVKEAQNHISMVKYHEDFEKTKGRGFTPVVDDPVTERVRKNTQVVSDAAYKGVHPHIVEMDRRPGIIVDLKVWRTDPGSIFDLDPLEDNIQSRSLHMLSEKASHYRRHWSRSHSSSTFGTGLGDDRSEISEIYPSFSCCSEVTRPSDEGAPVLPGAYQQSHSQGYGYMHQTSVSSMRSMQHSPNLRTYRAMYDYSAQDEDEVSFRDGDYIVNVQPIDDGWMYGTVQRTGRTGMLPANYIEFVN
UniProt Q16621: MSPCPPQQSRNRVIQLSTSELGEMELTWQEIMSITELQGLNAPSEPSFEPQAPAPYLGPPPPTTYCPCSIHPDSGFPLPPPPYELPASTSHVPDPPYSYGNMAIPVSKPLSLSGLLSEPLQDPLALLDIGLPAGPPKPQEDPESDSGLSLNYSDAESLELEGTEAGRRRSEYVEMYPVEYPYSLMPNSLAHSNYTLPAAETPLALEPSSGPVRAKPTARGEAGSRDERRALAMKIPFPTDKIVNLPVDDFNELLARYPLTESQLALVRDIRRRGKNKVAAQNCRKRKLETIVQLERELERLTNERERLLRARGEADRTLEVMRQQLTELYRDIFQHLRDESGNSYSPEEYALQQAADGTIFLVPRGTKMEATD
UniProt P56181: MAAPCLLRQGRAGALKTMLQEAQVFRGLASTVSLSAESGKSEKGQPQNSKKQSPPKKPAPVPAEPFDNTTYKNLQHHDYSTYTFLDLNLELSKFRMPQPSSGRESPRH
UniProt P19404, whole entry, looked up: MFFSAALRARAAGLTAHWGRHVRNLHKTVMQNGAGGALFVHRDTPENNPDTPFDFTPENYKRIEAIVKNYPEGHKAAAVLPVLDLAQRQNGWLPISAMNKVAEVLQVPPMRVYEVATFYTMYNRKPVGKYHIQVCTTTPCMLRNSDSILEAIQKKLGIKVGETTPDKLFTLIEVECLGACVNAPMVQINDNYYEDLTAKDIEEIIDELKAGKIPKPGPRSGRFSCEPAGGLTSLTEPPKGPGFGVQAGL
UniProt P12036: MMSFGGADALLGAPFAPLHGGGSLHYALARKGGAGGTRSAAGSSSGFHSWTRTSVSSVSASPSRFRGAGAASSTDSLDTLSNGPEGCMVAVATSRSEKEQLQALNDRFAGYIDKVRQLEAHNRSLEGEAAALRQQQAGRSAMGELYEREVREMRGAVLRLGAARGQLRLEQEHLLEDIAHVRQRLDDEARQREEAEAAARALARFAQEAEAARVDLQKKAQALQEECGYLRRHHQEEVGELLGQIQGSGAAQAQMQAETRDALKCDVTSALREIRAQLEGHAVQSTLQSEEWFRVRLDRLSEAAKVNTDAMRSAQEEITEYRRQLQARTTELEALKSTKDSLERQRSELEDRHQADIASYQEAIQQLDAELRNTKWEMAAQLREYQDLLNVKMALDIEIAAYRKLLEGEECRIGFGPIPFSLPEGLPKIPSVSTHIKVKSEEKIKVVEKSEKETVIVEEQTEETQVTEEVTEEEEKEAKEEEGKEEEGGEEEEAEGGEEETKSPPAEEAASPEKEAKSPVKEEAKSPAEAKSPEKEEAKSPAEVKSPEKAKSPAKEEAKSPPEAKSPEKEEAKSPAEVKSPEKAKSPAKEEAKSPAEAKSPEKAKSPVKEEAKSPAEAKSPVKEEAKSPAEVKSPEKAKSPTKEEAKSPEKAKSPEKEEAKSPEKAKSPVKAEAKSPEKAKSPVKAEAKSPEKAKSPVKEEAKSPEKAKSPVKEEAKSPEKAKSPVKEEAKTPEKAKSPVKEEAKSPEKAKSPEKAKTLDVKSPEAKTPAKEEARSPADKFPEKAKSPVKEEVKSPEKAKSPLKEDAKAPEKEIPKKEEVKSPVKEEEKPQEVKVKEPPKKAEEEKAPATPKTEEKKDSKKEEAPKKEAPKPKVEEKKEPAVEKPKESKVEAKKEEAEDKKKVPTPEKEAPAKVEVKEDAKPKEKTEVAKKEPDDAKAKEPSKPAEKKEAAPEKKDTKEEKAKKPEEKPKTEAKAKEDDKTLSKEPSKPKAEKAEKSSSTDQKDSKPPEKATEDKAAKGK
UniProt O75380, whole entry, looked up: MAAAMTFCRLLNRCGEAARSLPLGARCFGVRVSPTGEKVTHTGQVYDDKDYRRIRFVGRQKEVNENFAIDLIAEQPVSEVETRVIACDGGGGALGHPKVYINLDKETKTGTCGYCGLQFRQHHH
UniProt P19838: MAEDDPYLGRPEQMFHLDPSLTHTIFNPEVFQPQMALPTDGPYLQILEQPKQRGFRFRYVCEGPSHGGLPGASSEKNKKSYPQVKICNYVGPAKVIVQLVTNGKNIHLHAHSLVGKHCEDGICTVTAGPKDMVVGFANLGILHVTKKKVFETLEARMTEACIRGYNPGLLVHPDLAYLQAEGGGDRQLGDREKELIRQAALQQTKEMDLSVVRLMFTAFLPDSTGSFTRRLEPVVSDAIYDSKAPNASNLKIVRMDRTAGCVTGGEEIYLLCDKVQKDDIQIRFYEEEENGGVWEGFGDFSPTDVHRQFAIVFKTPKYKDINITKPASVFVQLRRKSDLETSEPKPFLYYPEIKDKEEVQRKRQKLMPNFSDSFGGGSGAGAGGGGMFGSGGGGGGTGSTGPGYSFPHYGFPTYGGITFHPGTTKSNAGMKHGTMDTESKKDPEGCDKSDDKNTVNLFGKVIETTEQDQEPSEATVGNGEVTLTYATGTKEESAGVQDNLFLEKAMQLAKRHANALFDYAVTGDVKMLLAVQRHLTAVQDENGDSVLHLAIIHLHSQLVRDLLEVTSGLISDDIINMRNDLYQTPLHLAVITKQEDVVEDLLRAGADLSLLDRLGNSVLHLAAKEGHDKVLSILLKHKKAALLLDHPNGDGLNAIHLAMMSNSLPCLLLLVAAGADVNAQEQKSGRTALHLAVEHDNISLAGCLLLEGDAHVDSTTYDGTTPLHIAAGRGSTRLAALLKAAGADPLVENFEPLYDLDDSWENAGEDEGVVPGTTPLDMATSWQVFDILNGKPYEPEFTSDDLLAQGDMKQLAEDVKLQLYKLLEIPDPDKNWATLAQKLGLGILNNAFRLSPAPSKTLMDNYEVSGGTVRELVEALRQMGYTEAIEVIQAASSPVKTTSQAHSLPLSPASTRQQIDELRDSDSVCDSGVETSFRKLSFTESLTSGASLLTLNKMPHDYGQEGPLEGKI
UniProt Q9BS92: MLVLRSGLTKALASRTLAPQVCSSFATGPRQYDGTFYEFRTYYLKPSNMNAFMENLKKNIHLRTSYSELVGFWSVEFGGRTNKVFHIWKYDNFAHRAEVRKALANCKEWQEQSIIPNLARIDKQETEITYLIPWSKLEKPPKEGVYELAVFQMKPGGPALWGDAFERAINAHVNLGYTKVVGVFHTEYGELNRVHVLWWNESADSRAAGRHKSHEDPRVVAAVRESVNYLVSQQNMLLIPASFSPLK
UniProt O95139, whole entry, looked up: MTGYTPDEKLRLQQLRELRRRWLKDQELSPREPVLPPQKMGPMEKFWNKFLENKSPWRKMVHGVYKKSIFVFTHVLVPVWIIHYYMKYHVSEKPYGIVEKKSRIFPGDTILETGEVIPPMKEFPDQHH
UniProt Q8IXH7, whole entry, looked up: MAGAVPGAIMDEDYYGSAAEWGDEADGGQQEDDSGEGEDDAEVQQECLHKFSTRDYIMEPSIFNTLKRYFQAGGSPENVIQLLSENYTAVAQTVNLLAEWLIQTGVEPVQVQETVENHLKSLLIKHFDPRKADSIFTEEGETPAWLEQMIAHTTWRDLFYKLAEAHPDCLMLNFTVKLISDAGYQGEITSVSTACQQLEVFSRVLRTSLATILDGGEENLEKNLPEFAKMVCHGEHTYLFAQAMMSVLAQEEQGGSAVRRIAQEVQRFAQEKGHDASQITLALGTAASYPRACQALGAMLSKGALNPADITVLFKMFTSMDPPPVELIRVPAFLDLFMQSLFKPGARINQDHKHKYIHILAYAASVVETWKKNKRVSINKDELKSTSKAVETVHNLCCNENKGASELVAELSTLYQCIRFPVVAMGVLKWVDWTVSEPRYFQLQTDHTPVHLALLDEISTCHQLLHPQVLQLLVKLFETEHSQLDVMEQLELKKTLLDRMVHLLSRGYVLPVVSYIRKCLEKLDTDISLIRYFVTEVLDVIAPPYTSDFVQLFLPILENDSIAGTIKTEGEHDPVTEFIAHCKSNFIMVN
UniProt O95298, whole entry, looked up: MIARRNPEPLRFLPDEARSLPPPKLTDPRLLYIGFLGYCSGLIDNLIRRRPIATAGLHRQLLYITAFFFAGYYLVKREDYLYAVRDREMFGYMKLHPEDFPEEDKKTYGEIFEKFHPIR
UniProt O75306, whole entry, looked up: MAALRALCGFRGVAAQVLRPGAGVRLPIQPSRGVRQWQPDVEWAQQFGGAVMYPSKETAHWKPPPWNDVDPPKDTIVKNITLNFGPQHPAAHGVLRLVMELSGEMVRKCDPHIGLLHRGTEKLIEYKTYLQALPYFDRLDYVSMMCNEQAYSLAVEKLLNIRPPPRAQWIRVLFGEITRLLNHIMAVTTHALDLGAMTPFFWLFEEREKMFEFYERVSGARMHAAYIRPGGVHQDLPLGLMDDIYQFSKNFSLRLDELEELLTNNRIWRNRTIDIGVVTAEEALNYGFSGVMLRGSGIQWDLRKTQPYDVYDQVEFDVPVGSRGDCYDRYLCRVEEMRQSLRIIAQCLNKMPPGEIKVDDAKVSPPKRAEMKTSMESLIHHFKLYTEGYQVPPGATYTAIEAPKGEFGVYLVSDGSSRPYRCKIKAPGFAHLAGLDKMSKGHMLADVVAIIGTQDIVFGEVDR
UniProt Q96TA1: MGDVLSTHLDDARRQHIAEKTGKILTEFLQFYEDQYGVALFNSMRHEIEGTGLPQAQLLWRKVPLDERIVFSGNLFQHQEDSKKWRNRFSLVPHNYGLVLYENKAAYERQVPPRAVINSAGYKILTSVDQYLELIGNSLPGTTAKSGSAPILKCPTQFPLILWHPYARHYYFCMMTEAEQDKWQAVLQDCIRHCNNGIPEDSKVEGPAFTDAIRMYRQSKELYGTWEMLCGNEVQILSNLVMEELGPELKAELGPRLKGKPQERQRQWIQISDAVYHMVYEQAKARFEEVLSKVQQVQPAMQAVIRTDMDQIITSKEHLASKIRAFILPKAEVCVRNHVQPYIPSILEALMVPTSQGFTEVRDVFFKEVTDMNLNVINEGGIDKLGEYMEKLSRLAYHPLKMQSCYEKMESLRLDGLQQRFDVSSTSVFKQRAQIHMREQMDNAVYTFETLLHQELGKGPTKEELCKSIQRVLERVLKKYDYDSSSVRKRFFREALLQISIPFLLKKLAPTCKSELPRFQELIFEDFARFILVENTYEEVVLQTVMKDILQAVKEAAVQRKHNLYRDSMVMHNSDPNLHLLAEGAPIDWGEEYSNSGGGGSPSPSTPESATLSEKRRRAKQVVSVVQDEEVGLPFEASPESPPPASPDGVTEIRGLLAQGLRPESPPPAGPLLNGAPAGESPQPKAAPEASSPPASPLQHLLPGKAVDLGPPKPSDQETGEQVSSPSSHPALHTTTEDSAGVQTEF

Tests used:
Experiment in all cases: log2 fold change, soluble protein after heating vs DMSO (PISA); higher = thermal stabilisation; K562 lysate, 10 uM; active = over 0.2 and 3.5 SD of the protein, either way, in both replicates (recomputed)
[1] = compound: CS(=O)(=O)CCNCc1ccc(-c2ccc3ncnc(Nc4ccc(OCc5cccc(F)c5)c(Cl)c4)c3c2)o1 [lapatinib]
In short: (§1)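 Thermal stability, expressed as log-two fold change relative to solvent controls, is given from duplicates. Crude K562 extract in PBS pH 7.4 with 1 mM MgCl2, at 1 mg/mL protein, was treated with 10 μM compound for 30 min and heated in aliquots for 3 min across 48°C-58°C. After pooling, adjustment to 0.5% NP-40 at 4°C and centrifugation at 21,000xg for 90 min, supernatant protein was measured by TMTpro 16plex LC-MS/MS with channel sums equalised.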

[2] = compound: CS(=O)(=O)N1CCN(Cc2cc3nc(-c4cccc5[nH]ncc45)nc(N4CCOCC4)c3s2)CC1 [pictilisib]
In short: as §1

[3] = compound: C[C@@H](Oc1cc(-c2cnn(C3CCNCC3)c2)cnc1N)c1c(Cl)ccc(F)c1Cl [crizotinib]
In short: as §1

[4] = compound: C[C@H](C1=CC=C(C=C1)C(=O)NC2=C3C=CNC3=NC=C2)N
In short: as §1

[5] = compound: C[C@H](Nc1ncnc2nc[nH]c12)c1cc2cccc(Cl)c2c(=O)n1-c1ccccc1 [duvelisib]
In short: as §1

[6] = compound: Cc1cc(Nc2cc(CN3CCOCC3)c3nc(C)c(Cc4ccc(Cl)cc4F)n3n2)n[nH]1 [gandotinib]
In short: as §1

[7] = compound: Cc1cc(Nc2cc(N3CCN(C)CC3)nc(Sc3ccc(NC(=O)C4CC4)cc3)n2)n[nH]1 [tozasertib]
In short: as §1

[8] = compound: Cc1ccc(-n2nc(C(C)(C)C)cc2NC(=O)Nc2ccc(OCCN3CCOCC3)c3ccccc23)cc1 [doramapimod]
In short: as §1

[9] = compound: Cc1ccc(NC(=O)c2ccc(CN3CC[C@H](N(C)C)C3)c(C(F)(F)F)c2)cc1Nc1nccc(-c2cncnc2)n1 [bafetinib]
In short: as §1

[10] = compound: Cc1cccc(CC(=O)N2CCc3c2ccc(-c2cn(C)c4ncnc(N)c24)c3F)n1
In short: as §1

[11] = compound: Cc1cn(-c2cc(NC(=O)c3ccc(C)c(Nc4nccc(-c5cccnc5)n4)c3)cc(C(F)(F)F)c2)cn1 [nilotinib]
In short: as §1

[12] = compound: Cc1nc(Nc2n[nH]c3c2CN(C(=O)N[C@H](CN(C)C)c2ccccc2)C3(C)C)c2sccc2n1
In short: as §1

[13] = compound: Cc1nc(Nc2ncc(C(=O)Nc3c(C)cccc3Cl)s2)cc(N2CCN(CCO)CC2)n1 [dasatinib]
In short: as §1

[14] = compound: Cc1ncc(-c2ccnc(Nc3ccc(S(C)(=O)=O)cc3)n2)n1C(C)C
In short: as §1

[15] = compound: Cn1cc(-c2ccc3c(c2)CCN3C(=O)Cc2cccc(C(F)(F)F)c2)c2c(N)ncnc21
In short: as §1

[16] = compound: Cn1cc(CNCC2CCN(c3ncc(C(=O)NO)cn3)CC2)c2ccccc21 [quisinostat]
In short: as §1

[17] = compound: Cn1cncc1[C@@](N)(c1ccc(Cl)cc1)c1ccc2c(c1)c(-c1cccc(Cl)c1)cc(=O)n2C [tipifarnib]
In short: as §1

[18] = compound: NC(=O)Nc1cc(-c2cccc(F)c2)sc1C(=O)N[C@H]1CCCNC1
In short: as §1

[19] = compound: NC(=O)c1cnc(N[C@@H]2CCCC[C@@H]2N)nc1Nc1cccc(-n2nccn2)c1
In short: as §1

[20] = compound: NC1(c2ccc(-c3nc4ccn5c(=O)[nH]nc5c4cc3-c3ccccc3)cc2)CCC1
In short: as §1

Measured: log2 fold change

NKAP (UniProt Q8N5F7)
inactive: [1] -0.022 | [2] 0.018 | [3] 0.048 | [4] -0.024 | [5] -0.05 | [6] 0.007 | [7] 0.091 | [8] 0.006 | [9] -0.028 | [10] 0.014 | [11] 0.034 | [12] 0.06 | [13] -0.047 | [14] -0.088 | [15] -0.086 | [16] -0.049 | [17] -0.028 | [18] -0.034 | [19] 0 | [20] -0.034

NEBL isoform 2 (UniProt O76041)
inactive: [1] 0.003 | [2] 0.044 | [3] 0.059 | [4] -0.135 | [5] -0.046 | [6] 0.094 | [7] -0.018 | [8] -0.018 | [9] 0.105 | [10] 0.073 | [11] -0.022 | [12] -0.001 | [13] -0.029 | [14] 0.015 | [15] -0.072 | [16] 0.012 | [17] -0.021 | [18] -0.017 | [19] -0.027 | [20] -0.007

NFE2 (UniProt Q16621)
inactive: [1] 0.031 | [2] 0.009 | [3] -0.106 | [4] 0.002 | [5] -0.05 | [6] 0.135 | [7] 0.024 | [8] 0.002 | [9] -0.077 | [10] 0.013 | [11] 0.007 | [12] -0.011 | [13] 0.028 | [14] 0.027 | [15] -0.032 | [16] -0.048 | [17] -0.026 | [18] -0.007 | [19] 0.002 | [20] 0.065

NDUFV3 isoform 2 (UniProt P56181)
inactive: [1] 0.006 | [2] 0.012 | [3] 0.039 | [4] -0.062 | [5] -0.014 | [6] 0.054 | [7] -0.022 | [8] -0.046 | [9] 0.016 | [10] 0.03 | [11] 0.006 | [12] 0.023 | [13] -0.002 | [14] 0.006 | [15] -0.011 | [16] 0.008 | [17] -0.01 | [18] -0.03 | [19] -0.016 | [20] 0.002

NDUFV2 (UniProt P19404)
inactive: [1] 0.013 | [2] -0.036 | [3] 0.01 | [4] 0.029 | [5] -0.007 | [6] -0.013 | [7] -0.004 | [8] -0.017 | [9] 0.001 | [10] 0.011 | [11] -0.019 | [12] -0.006 | [13] 0.022 | [14] -0.011 | [15] 0.028 | [16] -0.006 | [17] 0.02 | [18] -0.002 | [19] 0.016 | [20] -0.023

NEFH (UniProt P12036)
inactive: [1] -0.019 | [2] -0.048 | [3] 0.008 | [4] 0.015 | [5] -0.041 | [6] 0.009 | [7] -0.017 | [8] -0.008 | [9] -0.042 | [10] -0.003 | [11] -0.026 | [12] -0.052 | [13] 0.047 | [14] 0.025 | [15] 0.012 | [16] -0.04 | [17] 0.004 | [18] 0.041 | [19] -0.012 | [20] -0.053

NDUFB10 (UniProt O96000)
inactive: [1] -0.034 | [2] -0.02 | [3] -0.007 | [4] 0.013 | [5] 0.025 | [6] 0.01 | [7] -0.025 | [8] -0.034 | [9] -0.057 | [10] -0.008 | [11] 0.012 | [12] -0.003 | [13] -0.002 | [14] -0.018 | [15] -0.051 | [16] -0.021 | [17] -0.008 | [18] 0.029 | [19] 0.024 | [20] -0.009

NDUFS6 (UniProt O75380)
inactive: [1] 0.001 | [2] -0.022 | [3] 0.053 | [4] 0.002 | [5] -0.015 | [6] 0.019 | [7] 0.021 | [8] 0.023 | [9] 0.064 | [10] -0.032 | [11] 0.049 | [12] 0.023 | [13] -0.005 | [14] -0.022 | [15] -0.008 | [16] 0.023 | [17] 0.001 | [18] -0.011 | [19] 0.007 | [20] 0.035

NFKB1 isoform 2 (UniProt P19838)
inactive: [1] -0.008 | [2] 0.007 | [3] -0.033 | [4] -0.019 | [5] -0.008 | [6] -0.018 | [7] -0.006 | [9] -0.138 | [10] 0.028 | [11] 0.047 | [12] 0.02 | [14] -0.011 | [15] -0.052 | [16] 0.01 | [17] -0.019 | [18] 0.052 | [19] 0.005 | [20] 0.025

NIPSNAP3B (UniProt Q9BS92)
inactive: [1] -0.087 | [2] 0.116 | [3] -0.108 | [4] -0.045 | [6] 0.104 | [7] 0.214 | [8] 0.134 | [9] -0.132 | [10] 0.07 | [11] -0.101 | [12] 0.136 | [14] -0.069 | [16] 0.041 | [17] -0.088 | [18] -0.09 | [19] -0.032 | [20] -0.006

NDUFB6 (UniProt O95139)
inactive: [1] -0.014 | [2] -0.057 | [3] -0.047 | [4] -0.13 | [5] -0.026 | [6] 0.086 | [7] -0.035 | [8] -0.029 | [9] 0.048 | [10] 0.059 | [11] -0.004 | [12] 0.009 | [13] 0.074 | [14] 0.004 | [15] -0.049 | [16] -0.066 | [17] -0.04 | [18] -0.01 | [19] -0.009 | [20] 0.009

NELFCD (UniProt Q8IXH7)
inactive: [1] -0.035 | [2] -0.048 | [3] -0.043 | [4] 0.074 | [5] 0.017 | [6] -0.087 | [7] -0.025 | [8] 0.045 | [9] -0.105 | [10] -0.029 | [11] -0.024 | [12] 0.015 | [13] -0.019 | [14] -0.025 | [15] 0.034 | [16] -0.083 | [17] -0.032 | [18] 0.046 | [19] 0.013 | [20] -0.031

NDUFC2 (UniProt O95298)
inactive: [1] 0.056 | [2] 0.1 | [3] 0.111 | [4] 0.041 | [5] 0.026 | [6] -0.055 | [7] 0.027 | [8] 0.01 | [9] -0.072 | [10] 0.007 | [11] -0.073 | [12] 0.053 | [13] -0.057 | [14] 0.04 | [15] 0.065 | [16] 0.163 | [17] 0.062 | [18] -0.071 | [19] -0.007 | [20] -0.04

NES (UniProt P48681)
inactive: [1] -0.023 | [2] -0.023 | [3] -0.013 | [4] 0.001 | [5] 0.024 | [6] 0.015 | [7] 0.084 | [8] -0.007 | [9] -0.068 | [10] 0.013 | [11] -0.017 | [12] -0.037 | [13] -0.018 | [14] 0.017 | [15] 0.011 | [16] -0.033 | [17] 0.01 | [18] 0.018 | [19] -0.002 | [20] -0.001

NDUFS2 (UniProt O75306)
inactive: [1] -0.023 | [2] -0.019 | [3] -0.023 | [4] 0.015 | [5] -0.005 | [6] -0.033 | [7] -0.016 | [8] 0.013 | [9] -0.028 | [10] 0.012 | [11] 0.033 | [12] -0.039 | [13] -0.01 | [14] -0.003 | [15] 0.005 | [16] 0.018 | [17] -0.031 | [18] 0 | [19] -0.009 | [20] 0.002

NIBAN2 (UniProt Q96TA1)
inactive: [1] 0.005 | [2] 0.009 | [3] -0.044 | [4] 0.089 | [5] 0.023 | [6] -0.039 | [7] 0.008 | [8] 0.021 | [9] -0.023 | [10] -0.027 | [11] 0.004 | [12] 0.028 | [13] 0.006 | [14] -0.01 | [15] 0.005 | [16] -0.032 | [17] -0.014 | [18] 0.012 | [19] 0.016 | [20] 0.035
